Here are results for two molecules from paper doi:10.1101/2020.04.30.070086 (bioRxiv, 2020).

Test [1] has as its target T1, GST-Ndel1, full length (FL) (UniProt Q9ERR1).
T1 sequence: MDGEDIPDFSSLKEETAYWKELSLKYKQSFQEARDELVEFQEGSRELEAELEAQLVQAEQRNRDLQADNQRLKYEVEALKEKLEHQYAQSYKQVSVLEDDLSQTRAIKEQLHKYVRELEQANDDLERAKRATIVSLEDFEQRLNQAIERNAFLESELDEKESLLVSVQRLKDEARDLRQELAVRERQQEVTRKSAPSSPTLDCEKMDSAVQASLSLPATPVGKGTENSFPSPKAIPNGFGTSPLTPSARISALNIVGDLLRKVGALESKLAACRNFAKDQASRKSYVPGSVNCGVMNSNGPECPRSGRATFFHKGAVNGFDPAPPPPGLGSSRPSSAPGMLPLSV
In words: pull-down.

Test [2] has as its target GST-Ndel1 alpha-helical region (AH). Briefly: pull-down.

These are yes or no findings as the source states them, for the method shown. A result given as binding can be weak or reduced; the word gives no strength. For some assays here: Where a sequence is shown, tags or fusion partners need not be part of it.

In the case of “IF consensus motif of keratin 10 (domain or fragment)”, the binding result in test [1] was “binds”.

B1: keratin 10 (K10), full length (natural protein, UniProt P02535-2 1-561, looked up)
chain: MSVLYSSSSKQFSSSRSGGGGGGGSVRVSSTRGSLGGGYSSGGFSGGSFSRGSSGGGCFGGSSGGYGGFGGGGSFGGGYGGSSFGGGYGGSSFGGGSFGGGGSFGGGSFGGGSYGGGFGGGGFGGDGGSLLSGNEKVTMQNLNDRLASYMDKVRALEESNYELEGKIKEWYEKHGNSSQREPRDYSKYYKTIEDLKGQILTLTTDNANVLLQIDNARLAADDFRLKYENEVTLRQSVEADINGLRRVLDELTLSKSDLEMQIESLNEELAYLKKNHEEEMRDLQNVSTGDVNVEMNAAPGVDLTQLLNNMRNQYEQLAEKNRKDAEEWFNQKSKELTTEIDSNIEQMSSHKSEITELRRTVQGLEIELQSQLALKQSLEASLAETEGRYCVQLSQIQSQISALEEQLQQIRAETECQNAEYQQLLDIKTRLENEIQTYRSLLEGEGSSSGGGGGRRGGSGGGSYGGSSGGGSYGGSSGGGGSYGGSSGGGGSYGGGSSGGGSHGGSSGGGYGGGSSSGGAGGHGGSSGGGYGGGSSSGGQGGSGGFKSSGGGDQSSKGPRY
As for B1, the binding result in test [2] is listed as “binds”.
